# Results from PubChem BioAssay AID651640 (Broad Institute, 2012).
# Out of some 350,000 compounds screened, about 6,000 (1.7%) were called active. The inconclusive results got no clear call from the source; some entries with a clear call stand among them for comparison. No stated cut-off is given here; in the data, active means CPE inhibition above about 20% (passing the limit was not always enough); inconclusive means no clear call, values can overlap the other calls; tested in BHK-21 cells.
# Experiment: protection of cells from dengue 2 killing – plate reader, single concentration, primary screen (AID 651640);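 further: 0% = median of neutral control wells and 100% = median of positive control wells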
# Settings: DENV2-infected cells, cytopathic effect rescue, at 9.99 µM, active compounds read high
row,SMILES,CPE inhibition
1,COc1cc(C(=O)O/N=C2/C=C(C)C(=O)C=C2C)cc(OC)c1OC,inactive: 3.38%
2,O=C(c1cc(-c2ccccc2Cl)nc2ccccc12)N1CCOCC1,inconclusive: 21.9%
3,CN(Cc1ccccc1)S(=O)(=O)c1cccs1,inactive: 4.1%
4,O=C(CCN1CCCCC1)N[C@@H]1CC[C@H](CCNS(=O)(=O)c2ccc(Cl)cc2)O[C@H]1CO,inactive: -1.9%
5,Cc1cc(C)cc(-n2ncc3c2CCCC3NC(=O)c2cc(C)n(C)n2)c1 (stereo not drawn),inconclusive: 21.7%
6,COc1cc(NC(=S)N2CCc3ccccc3C2)cc(OC)c1,inconclusive: 20.5%
7,O=C(NS(=O)(=O)N1CCOCC1)C1=C(N2CCCC2)COC1=O,inconclusive: 46.7%
8,C[C@H](CO)N1C[C@H](C)[C@@H](CN(C)Cc2ccc(Cl)c(Cl)c2)Oc2ccc(NS(=O)(=O)c3cn(C)cn3)cc2C1=O,inconclusive: 28.2%
9,Cc1ccc(S(=O)(=O)NCC[C@H]2CC[C@H](NS(=O)(=O)c3ccccc3Cl)[C@@H](CO)O2)cc1,inconclusive: 53.7%
10,COc1ccc(S(=O)(=O)Nc2ccc3c(c2)C(=O)N([C@H](C)CO)C[C@H](C)[C@@H](CN(C)C(=O)Nc2c(C)noc2C)OCCCC[C@@H](C)O3)cc1,active: 40.6%
11,Clc1ccc(-c2nc3ccc(Br)cn3c2Cc2ccsc2)cc1,inconclusive: 43.2%
12,COC(=O)c1sccc1N/C=C(\C#N)S(=O)(=O)C(C)(C)C,inconclusive: 39.5%
13,CCc1nc2ccc(C(=O)NC3CCC(C)CC3)cc2nc1CC (stereo not drawn),inconclusive: 30.6%
14,CC1CCN(C(=O)C(C)OC(=O)CSc2ccc([N+](=O)[O-])cc2)CC1 (stereo not drawn),inconclusive: 33.5%
15,C[C@@H]1CN([C@H](C)CO)S(=O)(=O)c2ccc(C#CCN(C)C)cc2O[C@H]1CN(C)C(=O)Nc1ccccc1F,inconclusive: 41.3%
16,CO[C@H]1CN(C)C(=O)c2ccc(NC(=O)Nc3c(C)noc3C)cc2OC[C@@H](C)N(CC2CC2)C[C@H]1C,inconclusive: 30.4%
17,Cc1nn(Cc2ccccc2)c(C)c1/C=N/NC(=O)c1ccccc1O,inconclusive: 21.2%
18,CC(C)NC(=O)N(C)C[C@H]1OCc2cnnn2CCCC(=O)N([C@@H](C)CO)C[C@@H]1C,active: 45.3%
19,CSc1ncc(S(=O)(=O)c2ccccc2)c(=O)[nH]1,inactive: 10.1%
20,OCc1ccccc1CN1CCCCCC1,inactive: 0.121%
21,COc1cc(Nc2ccn3nc(-c4ccccc4Cl)cc3n2)cc(OC)c1OC,active: 30.2%
22,CCn1c2ccccc2c2cc(CNCc3ccc(OC)cc3OC)ccc21,inactive: -11.8%
23,COc1cccc(S(=O)(=O)N2CCCCN3[C@H](C2)[C@@H](c2ccc(C#CC4CC4)cc2)[C@@H]3CO)c1,inactive: -29.7%
24,O=C(Cc1ccccn1)NCC[C@H]1CC[C@@H](NC(=O)CN2CCOCC2)[C@H](CO)O1,inactive: 0.729%

# A different layout for part of the listing above.
row | SMILES | CPE inhibition
8 | C[C@H](CO)N1C[C@H](C)[C@@H](CN(C)Cc2ccc(Cl)c(Cl)c2)Oc2ccc(NS(=O)(=O)c3cn(C)cn3)cc2C1=O | inconclusive: 28.2%
9 | Cc1ccc(S(=O)(=O)NCC[C@H]2CC[C@H](NS(=O)(=O)c3ccccc3Cl)[C@@H](CO)O2)cc1 | inconclusive: 53.7%
10 | COc1ccc(S(=O)(=O)Nc2ccc3c(c2)C(=O)N([C@H](C)CO)C[C@H](C)[C@@H](CN(C)C(=O)Nc2c(C)noc2C)OCCCC[C@@H](C)O3)cc1 | active: 40.6%
11 | Clc1ccc(-c2nc3ccc(Br)cn3c2Cc2ccsc2)cc1 | inconclusive: 43.2%
12 | COC(=O)c1sccc1N/C=C(\C#N)S(=O)(=O)C(C)(C)C | inconclusive: 39.5%
13 | CCc1nc2ccc(C(=O)NC3CCC(C)CC3)cc2nc1CC (stereo not drawn) | inconclusive: 30.6%
14 | CC1CCN(C(=O)C(C)OC(=O)CSc2ccc([N+](=O)[O-])cc2)CC1 (stereo not drawn) | inconclusive: 33.5%
15 | C[C@@H]1CN([C@H](C)CO)S(=O)(=O)c2ccc(C#CCN(C)C)cc2O[C@H]1CN(C)C(=O)Nc1ccccc1F | inconclusive: 41.3%
16 | CO[C@H]1CN(C)C(=O)c2ccc(NC(=O)Nc3c(C)noc3C)cc2OC[C@@H](C)N(CC2CC2)C[C@H]1C | inconclusive: 30.4%
17 | Cc1nn(Cc2ccccc2)c(C)c1/C=N/NC(=O)c1ccccc1O | inconclusive: 21.2%
18 | CC(C)NC(=O)N(C)C[C@H]1OCc2cnnn2CCCC(=O)N([C@@H](C)CO)C[C@@H]1C | active: 45.3%
19 | CSc1ncc(S(=O)(=O)c2ccccc2)c(=O)[nH]1 | inactive: 10.1%
20 | OCc1ccccc1CN1CCCCCC1 | inactive: 0.121%

# Next compounds follow.

row,SMILES,CPE inhibition
1,C[C@H]1CCCCO[C@H](CN(C)CC2CC2)[C@@H](C)CN([C@@H](C)CO)C(=O)c2cc(NS(=O)(=O)c3ccccc3)ccc2O1,inactive: 3.2%
2,N#C[C@@H]1[C@@H](c2ccc(-c3cccc(F)c3)cc2)[C@@H](CO)N1C(=O)NC1CCCCC1,inconclusive: 30.1%
3,COc1cccc(C(=O)N2CCOCC2)c1,active: 32.5%
4,Cc1noc(C)c1S(=O)(=O)N(C)C[C@@H]1OCCCC[C@H](C)Oc2ccc(NS(=O)(=O)c3cccs3)cc2C(=O)N([C@H](C)CO)C[C@H]1C,inactive: -8.29%
5,O=S(=O)(Cc1ccccc1)N1CC2(C1)[C@H](c1ccccc1)[C@@H](CO)N2CC1CCOCC1,active: 26.6%
6,COc1cccc(CN2CC(C(=O)NCc3ccc(C)c(F)c3)CCC2=O)c1 (stereo not drawn),inconclusive: 24.9%
7,O=[N+]([O-])c1ccc(/C=N/Nc2ncc(-c3ccccc3)cn2)cc1,inconclusive: 36.4%
8,C[C@H](CO)N1C[C@H](C)[C@@H](CN(C)S(=O)(=O)c2ccc(F)cc2)Oc2cc(Br)ccc2S1(=O)=O,inconclusive: 23.1%
9,Cc1ccc(CN2C(=O)CCC2(C)c2nnnn2-c2c(C)cccc2C)cc1 (stereo not drawn),inactive: -4.21%
10,CC(C)NC(=O)N1[C@H](CO)[C@H](c2ccccc2)[C@H]1CNC(=O)CN(C)C,inconclusive: 24.9%
11,O=C(Cc1ccccc1)O/N=C1\CCCc2ccccc21,inconclusive: 42.3%
12,COc1ccc(NC(=O)Nc2cccc3c2O[C@@H](CN(C)C)[C@@H](C)CN([C@H](C)CO)C3=O)cc1,inactive: 5.25%
13,Cc1noc(C)c1S(=O)(=O)N(C)C[C@H]1Oc2ccc(NS(=O)(=O)c3cn(C)cn3)cc2CC(=O)N([C@H](C)CO)C[C@@H]1C,inconclusive: 27.8%
14,O=C(C[C@@H]1CC[C@H](NC(=O)c2cccc(F)c2)[C@H](CO)O1)Nc1nccs1,inconclusive: 38.4%
15,COC(=O)c1ccc2nc(NC(=O)CSCC(=O)OCC(=O)c3ccccc3)sc2c1,inconclusive: 60.3%
16,O=C(N/N=C/c1ccccc1)c1ccc(-c2ccccc2)cc1,inconclusive: 32.5%
17,NC(=O)CC(NC(=O)Cc1cccc2ccccc12)c1ccc(NCCc2ccccc2F)c([N+](=O)[O-])c1 (stereo not drawn),active: 21.3%
18,O=C(CN1CCSc2ccccc21)NCCCc1ccccc1,inconclusive: 20.9%
19,O=C(O)c1c2c(nc3ccccc13)/C(=C/c1ccccc1[N+](=O)[O-])CCC2,inactive: -0.917%
20,CN(Cc1ccccc1)C(=O)c1ccc(NC(=O)Cc2ccc(NC(=O)C3CCN(C(=O)c4ccccc4)CC3)cc2)cc1,inconclusive: 32%
21,CCOC(=O)C1(Cc2cccc(OC)c2)CCN(Cc2ccon2)CC1,inconclusive: 45.3%
22,COc1cccc(CC2(CO)CCCN(CC3=Cc4cc(OC)ccc4OC3)C2)c1 (stereo not drawn),inconclusive: 21.2%
23,Cc1noc(C)c1S(=O)(=O)Nc1ccc2c(c1)C(=O)N([C@H](C)CO)C[C@@H](C)[C@@H](CN(C)Cc1ccc3c(c1)OCO3)OCCCC[C@H](C)O2,inactive: -7.04%
24,Cc1ccccc1N=C1NC(=O)/C(=C/c2cccn2C)S1,inconclusive: 31.1%
